{
  "source": "patent US20040105849A1",
  "about": "“Treatment for SMA disease” (priority 2002, published 2004)",
  "tested_on": "Patient A, Spinal Muscular Atrophy (SMA) Type I",
  "test": "Treatment of Patient A with Type I SMA: observed benefit (breathing, oxygen saturations, mucus, movement)",
  "type": "in vivo, human",
  "note": "At least one compound was matched to its structure with a doubt left.",
  "data": [
    {"smiles": "C[C@@H]1O[C@@H](OC[C@H]2O[C@@H](Oc3c(-c4ccc(O)c(O)c4)oc4cc(O)cc(O)c4c3=O)[C@H](O)[C@@H](O)[C@@H]2O)[C@H](O)[C@H](O)[C@H]1O", "note": "[Rutin]", "values": [
      {"measurement": "efficacy at low dosage", "setting": "dosages below approximately 3 mg every three days", "result": "ineffective"},
      {"measurement": "added benefit of rutin along with pectin", "setting": "rutin added to pectin", "result": "did not appear to produce any added benefit"}
    ]}
  ]
}
